Laboratory results published in the supplement of paper PMC10849652.
This is one part of the list.

Sequences of proteins named here, by UniProt entry; tags and fusion partners are left off. A change or cut given only in a name is not applied to a line headed by its entry.
UniProt Q9Y2I8: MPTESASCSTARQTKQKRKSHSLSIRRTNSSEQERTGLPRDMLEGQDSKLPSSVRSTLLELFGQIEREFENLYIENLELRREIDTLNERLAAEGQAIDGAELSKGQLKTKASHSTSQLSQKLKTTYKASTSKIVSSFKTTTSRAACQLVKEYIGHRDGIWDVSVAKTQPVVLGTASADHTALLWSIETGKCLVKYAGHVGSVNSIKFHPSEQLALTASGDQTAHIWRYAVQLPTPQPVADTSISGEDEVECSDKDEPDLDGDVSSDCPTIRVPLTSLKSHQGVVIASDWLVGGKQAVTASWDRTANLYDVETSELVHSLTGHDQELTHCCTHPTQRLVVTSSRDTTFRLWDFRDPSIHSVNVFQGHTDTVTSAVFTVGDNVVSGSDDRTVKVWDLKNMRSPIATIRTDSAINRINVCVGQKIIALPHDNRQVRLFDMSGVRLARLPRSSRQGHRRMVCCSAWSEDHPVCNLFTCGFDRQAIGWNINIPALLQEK
UniProt Q96AX1: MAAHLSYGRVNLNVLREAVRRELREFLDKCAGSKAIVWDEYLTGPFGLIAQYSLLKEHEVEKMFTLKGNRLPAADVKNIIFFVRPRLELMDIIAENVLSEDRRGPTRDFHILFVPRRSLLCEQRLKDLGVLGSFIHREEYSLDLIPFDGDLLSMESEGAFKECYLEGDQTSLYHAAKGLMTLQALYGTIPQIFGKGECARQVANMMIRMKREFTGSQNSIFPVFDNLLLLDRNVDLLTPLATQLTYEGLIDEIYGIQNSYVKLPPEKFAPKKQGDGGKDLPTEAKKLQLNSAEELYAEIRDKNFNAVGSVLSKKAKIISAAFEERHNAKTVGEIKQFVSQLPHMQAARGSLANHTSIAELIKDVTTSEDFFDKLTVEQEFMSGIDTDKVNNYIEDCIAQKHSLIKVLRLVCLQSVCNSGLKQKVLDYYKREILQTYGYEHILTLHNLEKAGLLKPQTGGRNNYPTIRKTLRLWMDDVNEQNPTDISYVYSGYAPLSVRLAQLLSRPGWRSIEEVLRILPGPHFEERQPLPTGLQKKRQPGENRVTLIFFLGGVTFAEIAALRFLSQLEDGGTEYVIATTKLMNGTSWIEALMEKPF
UniProt Q9BZH6: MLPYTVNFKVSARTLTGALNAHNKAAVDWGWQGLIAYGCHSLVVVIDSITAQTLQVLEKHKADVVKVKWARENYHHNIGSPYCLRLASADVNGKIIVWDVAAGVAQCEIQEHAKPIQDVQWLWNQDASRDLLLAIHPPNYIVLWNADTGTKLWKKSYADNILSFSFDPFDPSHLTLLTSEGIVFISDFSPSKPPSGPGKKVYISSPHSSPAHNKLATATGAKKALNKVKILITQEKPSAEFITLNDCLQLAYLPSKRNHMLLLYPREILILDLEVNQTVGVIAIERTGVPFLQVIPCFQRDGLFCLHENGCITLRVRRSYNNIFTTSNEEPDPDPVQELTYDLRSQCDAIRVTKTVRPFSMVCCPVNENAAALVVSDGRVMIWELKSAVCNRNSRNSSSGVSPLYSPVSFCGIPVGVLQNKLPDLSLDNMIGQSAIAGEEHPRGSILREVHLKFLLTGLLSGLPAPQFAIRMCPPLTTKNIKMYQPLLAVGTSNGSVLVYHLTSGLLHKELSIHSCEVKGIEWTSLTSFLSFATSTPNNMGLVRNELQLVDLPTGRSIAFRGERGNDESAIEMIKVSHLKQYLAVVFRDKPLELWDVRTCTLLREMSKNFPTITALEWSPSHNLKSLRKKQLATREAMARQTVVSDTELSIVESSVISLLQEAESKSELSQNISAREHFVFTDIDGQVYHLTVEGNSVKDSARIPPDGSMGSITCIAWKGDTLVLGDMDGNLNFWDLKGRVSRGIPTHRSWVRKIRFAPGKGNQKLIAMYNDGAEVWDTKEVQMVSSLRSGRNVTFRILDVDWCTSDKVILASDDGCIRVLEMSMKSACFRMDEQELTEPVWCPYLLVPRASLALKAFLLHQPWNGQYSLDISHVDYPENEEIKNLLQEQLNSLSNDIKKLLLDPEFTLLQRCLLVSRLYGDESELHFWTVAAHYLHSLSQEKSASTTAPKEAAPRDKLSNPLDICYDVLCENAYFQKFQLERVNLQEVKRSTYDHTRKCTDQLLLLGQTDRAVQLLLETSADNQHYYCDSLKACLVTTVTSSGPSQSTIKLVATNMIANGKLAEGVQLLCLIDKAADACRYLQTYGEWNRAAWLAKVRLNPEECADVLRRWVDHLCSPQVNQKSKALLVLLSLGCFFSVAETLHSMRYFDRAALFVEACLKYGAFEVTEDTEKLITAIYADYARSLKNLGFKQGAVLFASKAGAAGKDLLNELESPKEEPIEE
UniProt Q3ZAQ7: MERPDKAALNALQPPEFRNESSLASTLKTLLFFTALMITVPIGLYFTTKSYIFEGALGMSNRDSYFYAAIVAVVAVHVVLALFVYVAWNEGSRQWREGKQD
UniProt Q9NW82: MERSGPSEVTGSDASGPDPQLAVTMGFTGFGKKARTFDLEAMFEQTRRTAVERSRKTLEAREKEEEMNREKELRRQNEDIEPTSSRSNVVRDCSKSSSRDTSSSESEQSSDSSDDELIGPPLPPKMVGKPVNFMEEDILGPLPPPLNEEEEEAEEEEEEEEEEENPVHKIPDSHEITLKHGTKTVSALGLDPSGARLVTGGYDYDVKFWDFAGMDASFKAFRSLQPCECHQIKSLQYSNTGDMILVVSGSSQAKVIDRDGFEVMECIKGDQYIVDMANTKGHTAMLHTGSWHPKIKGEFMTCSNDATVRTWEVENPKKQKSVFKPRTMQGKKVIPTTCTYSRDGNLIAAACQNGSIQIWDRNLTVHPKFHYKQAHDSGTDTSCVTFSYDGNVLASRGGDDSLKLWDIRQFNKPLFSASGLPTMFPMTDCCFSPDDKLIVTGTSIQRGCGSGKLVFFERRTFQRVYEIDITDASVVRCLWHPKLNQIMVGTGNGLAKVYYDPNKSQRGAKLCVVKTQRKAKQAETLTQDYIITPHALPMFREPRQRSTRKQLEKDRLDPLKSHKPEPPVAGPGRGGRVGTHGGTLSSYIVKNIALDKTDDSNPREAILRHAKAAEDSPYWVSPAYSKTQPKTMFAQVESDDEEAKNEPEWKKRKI
UniProt Q96MX6, whole entry, looked up: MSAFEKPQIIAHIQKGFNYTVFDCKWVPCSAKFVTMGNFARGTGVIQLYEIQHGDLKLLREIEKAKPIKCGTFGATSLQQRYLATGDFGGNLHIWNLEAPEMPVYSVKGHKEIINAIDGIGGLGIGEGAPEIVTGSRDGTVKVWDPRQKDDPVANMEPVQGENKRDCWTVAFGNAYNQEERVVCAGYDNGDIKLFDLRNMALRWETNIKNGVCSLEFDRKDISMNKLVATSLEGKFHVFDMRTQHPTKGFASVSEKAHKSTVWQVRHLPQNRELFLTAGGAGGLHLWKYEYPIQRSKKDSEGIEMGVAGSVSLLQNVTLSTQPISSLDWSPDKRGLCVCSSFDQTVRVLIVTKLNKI
UniProt Q6UXN9, whole entry, looked up: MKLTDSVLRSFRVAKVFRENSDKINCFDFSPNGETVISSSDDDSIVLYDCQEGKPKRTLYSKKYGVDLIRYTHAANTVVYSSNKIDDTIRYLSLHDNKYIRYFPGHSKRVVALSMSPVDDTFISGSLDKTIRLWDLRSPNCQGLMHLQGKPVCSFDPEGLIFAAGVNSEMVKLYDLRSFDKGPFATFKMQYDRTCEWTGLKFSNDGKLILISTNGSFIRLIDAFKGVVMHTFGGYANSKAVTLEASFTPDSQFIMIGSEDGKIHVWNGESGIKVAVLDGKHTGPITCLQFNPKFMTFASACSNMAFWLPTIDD
UniProt O00258: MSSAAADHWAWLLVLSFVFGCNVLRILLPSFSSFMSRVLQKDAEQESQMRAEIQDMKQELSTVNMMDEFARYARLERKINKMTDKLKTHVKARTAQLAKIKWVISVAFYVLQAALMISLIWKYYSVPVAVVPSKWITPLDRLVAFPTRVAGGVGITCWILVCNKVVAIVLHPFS
UniProt Q96EX3: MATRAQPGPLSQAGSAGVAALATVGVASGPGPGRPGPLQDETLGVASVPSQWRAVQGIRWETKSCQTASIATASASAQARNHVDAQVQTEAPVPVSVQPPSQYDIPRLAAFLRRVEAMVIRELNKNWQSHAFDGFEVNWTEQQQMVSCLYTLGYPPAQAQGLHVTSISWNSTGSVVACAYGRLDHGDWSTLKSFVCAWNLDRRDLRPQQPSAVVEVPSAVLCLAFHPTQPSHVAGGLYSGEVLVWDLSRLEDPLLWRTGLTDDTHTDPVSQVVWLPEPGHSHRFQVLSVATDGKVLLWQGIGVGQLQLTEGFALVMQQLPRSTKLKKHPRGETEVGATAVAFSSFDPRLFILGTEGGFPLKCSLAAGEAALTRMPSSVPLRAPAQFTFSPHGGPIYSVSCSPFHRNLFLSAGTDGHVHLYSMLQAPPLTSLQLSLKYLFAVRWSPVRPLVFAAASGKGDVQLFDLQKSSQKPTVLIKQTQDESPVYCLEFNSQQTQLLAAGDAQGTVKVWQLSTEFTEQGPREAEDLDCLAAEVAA
UniProt Q9H7M9, whole entry, looked up: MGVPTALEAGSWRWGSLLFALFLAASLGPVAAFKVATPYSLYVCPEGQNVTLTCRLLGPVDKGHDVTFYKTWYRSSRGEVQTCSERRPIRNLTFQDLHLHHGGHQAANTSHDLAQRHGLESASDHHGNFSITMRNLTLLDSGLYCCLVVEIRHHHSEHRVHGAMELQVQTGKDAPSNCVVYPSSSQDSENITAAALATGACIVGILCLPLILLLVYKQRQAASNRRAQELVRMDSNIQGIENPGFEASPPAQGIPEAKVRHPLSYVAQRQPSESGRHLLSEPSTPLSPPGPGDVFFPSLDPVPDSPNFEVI
UniProt Q69YN4: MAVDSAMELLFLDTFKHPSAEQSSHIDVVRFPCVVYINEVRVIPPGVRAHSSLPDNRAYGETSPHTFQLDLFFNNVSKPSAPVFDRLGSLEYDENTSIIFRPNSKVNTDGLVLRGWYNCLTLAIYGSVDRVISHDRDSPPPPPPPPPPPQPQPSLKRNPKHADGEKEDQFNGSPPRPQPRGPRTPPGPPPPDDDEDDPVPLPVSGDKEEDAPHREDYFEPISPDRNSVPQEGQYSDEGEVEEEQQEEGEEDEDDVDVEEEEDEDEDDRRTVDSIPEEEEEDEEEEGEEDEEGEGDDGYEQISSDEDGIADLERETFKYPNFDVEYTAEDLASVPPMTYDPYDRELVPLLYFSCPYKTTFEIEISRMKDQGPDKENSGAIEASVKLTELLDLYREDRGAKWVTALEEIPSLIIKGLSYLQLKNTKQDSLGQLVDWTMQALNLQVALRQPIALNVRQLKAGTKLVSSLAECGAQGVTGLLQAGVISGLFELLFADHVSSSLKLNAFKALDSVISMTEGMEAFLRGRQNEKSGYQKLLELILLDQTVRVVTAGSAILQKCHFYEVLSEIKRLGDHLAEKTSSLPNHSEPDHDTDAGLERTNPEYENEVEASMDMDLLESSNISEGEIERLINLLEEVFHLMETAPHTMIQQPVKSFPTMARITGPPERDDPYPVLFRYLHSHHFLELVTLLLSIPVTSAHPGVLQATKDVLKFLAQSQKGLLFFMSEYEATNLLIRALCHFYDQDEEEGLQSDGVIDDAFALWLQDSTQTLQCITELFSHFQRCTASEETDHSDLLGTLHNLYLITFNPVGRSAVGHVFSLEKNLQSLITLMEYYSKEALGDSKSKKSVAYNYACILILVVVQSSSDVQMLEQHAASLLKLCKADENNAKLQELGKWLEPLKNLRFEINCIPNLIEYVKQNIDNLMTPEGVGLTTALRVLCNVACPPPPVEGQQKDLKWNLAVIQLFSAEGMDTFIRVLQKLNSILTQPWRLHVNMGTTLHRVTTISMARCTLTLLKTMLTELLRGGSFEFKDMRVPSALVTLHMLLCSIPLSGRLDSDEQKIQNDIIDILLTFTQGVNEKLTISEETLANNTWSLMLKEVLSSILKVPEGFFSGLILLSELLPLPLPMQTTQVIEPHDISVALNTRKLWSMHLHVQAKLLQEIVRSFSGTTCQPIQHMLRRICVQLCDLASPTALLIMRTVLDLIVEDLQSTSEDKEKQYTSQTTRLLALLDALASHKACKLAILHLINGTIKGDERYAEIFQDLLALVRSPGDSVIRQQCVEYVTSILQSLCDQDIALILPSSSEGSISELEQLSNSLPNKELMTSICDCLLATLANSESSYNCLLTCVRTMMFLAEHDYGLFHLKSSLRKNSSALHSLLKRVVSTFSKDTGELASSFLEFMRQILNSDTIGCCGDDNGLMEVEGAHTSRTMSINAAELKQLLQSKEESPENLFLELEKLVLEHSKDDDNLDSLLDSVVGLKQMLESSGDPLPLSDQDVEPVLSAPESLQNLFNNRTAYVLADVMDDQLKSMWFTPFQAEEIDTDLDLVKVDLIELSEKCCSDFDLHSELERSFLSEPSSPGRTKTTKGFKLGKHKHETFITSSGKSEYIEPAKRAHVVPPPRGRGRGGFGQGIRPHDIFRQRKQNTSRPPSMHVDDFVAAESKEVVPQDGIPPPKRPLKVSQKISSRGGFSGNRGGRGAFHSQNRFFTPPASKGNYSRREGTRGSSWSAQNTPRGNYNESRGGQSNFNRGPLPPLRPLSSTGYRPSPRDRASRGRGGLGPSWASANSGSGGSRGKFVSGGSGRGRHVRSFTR

Key:
Experiment in all cases: log2 fold change, soluble protein after heating vs DMSO (PISA); higher = thermal stabilisation; K562 cells, 10 uM, 30 min; active = over 0.2 and 3.5 SD of the protein, either way, in both replicates (recomputed)
bafetinib = compound: Cc1ccc(NC(=O)c2ccc(CN3CC[C@H](N(C)C)C3)c(C(F)(F)F)c2)cc1Nc1nccc(-c2cncnc2)n1 [bafetinib]
Outline: (§1)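 For each measurement, 10 μM compound was applied for 30 min to K562 cells at 2×10^6 cells/mL. Aliquots were heated for 3 min across 48°C-58°C, pooled, and extracted in PBS with 0.5% NP-40 at 4°C; the supernatant after 21,000xg for 90 min was soluble protein. This was quantified by TMTpro 16plex LC-MS/MS with channel sums equalised, and thermal stability was reported relative to control samples from duplicates, on a log2 fold-change scale.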

[1] = compound: Cc1cccc(CC(=O)N2CCc3c2ccc(-c2cn(C)c4ncnc(N)c24)c3F)n1
Outline: as §1

nilotinib = compound: Cc1cn(-c2cc(NC(=O)c3ccc(C)c(Nc4nccc(-c5cccnc5)n4)c3)cc(C(F)(F)F)c2)cn1 [nilotinib]
Outline: as §1

[2] = compound: Cc1nc(Nc2n[nH]c3c2CN(C(=O)N[C@H](CN(C)C)c2ccccc2)C3(C)C)c2sccc2n1
Outline: as §1

dasatinib = compound: Cc1nc(Nc2ncc(C(=O)Nc3c(C)cccc3Cl)s2)cc(N2CCN(CCO)CC2)n1 [dasatinib]
Outline: as §1

[3] = compound: Cc1ncc(-c2ccnc(Nc3ccc(S(C)(=O)=O)cc3)n2)n1C(C)C
Outline: as §1

[4] = compound: Cn1cc(-c2ccc3c(c2)CCN3C(=O)Cc2cccc(C(F)(F)F)c2)c2c(N)ncnc21
Outline: as §1

[5] = compound: Cn1cc(-c2ccc3nnc(C(F)(F)c4ccc5ncccc5c4)n3n2)cn1
Outline: as §1

tipifarnib = compound: Cn1cncc1[C@@](N)(c1ccc(Cl)cc1)c1ccc2c(c1)c(-c1cccc(Cl)c1)cc(=O)n2C [tipifarnib]
Outline: as §1

mubritinib = compound: FC(F)(F)c1ccc(/C=C/c2nc(COc3ccc(CCCCn4ccnn4)cc3)co2)cc1 [mubritinib]
Outline: as §1

Row | Target | log2 fold change (bafetinib) | log2 fold change [1] | log2 fold change (nilotinib) | log2 fold change [2] | log2 fold change (dasatinib) | log2 fold change [3] | log2 fold change [4] | log2 fold change [5] | log2 fold change (tipifarnib) | log2 fold change (mubritinib)
1 | WRNIP1 (UniProt Q96S55) | inactive: -0.093 | inactive: -0.093 | inactive: -0.236 | inactive: -0.086 | inactive: -0.51 | inactive: -0.131 | inactive: 0.057 | inactive: 0.133 | inactive: 0.064 | inactive: -0.244
2 | WDR37 isoform 2 (UniProt Q9Y2I8) | inactive: 0.039 | inactive: -0.093 | inactive: -0.073 | inactive: 0.039 | inactive: 0.005 | inactive: -0.05 | inactive: -0.024 | inactive: 0.017 | inactive: 0.083 | inactive: -0.021
3 | VPS29 isoform 2 (UniProt Q9UBQ0) | inactive: -0.043 | inactive: 0.034 | inactive: 0.01 | inactive: 0.014 | inactive: 0.064 | inactive: 0.012 | inactive: -0.004 | inactive: 0.005 | inactive: 0.023 | inactive: 0.036
4 | VPS33A (UniProt Q96AX1) | inactive: -0.066 | inactive: 0.091 | inactive: -0.071 | inactive: -0.124 | inactive: -0.123 | inactive: -0.039 | inactive: -0.019 | inactive: -0.094 | inactive: -0.064 | inactive: 0.098
5 | WDR11 (UniProt Q9BZH6) | inactive: 0.063 | inactive: -0.067 | inactive: -0.229 | inactive: 0.051 | inactive: 0.056 | inactive: -0.121 | inactive: -0.018 | inactive: 0.046 | inactive: 0.038 | inactive: 0.051
6 | VDAC3 (UniProt Q9Y277) | inactive: -0.049 | inactive: -0.044 | inactive: -0.009 | inactive: 0.053 | inactive: 0.047 | inactive: -0.006 | inactive: 0.016 | inactive: -0.012 | inactive: -0.033 | inactive: 0.021
7 | VMA21 isoform 2 (UniProt Q3ZAQ7) | inactive: -0.107 | inactive: 0.074 | inactive: 0.174 | inactive: -0.082 | inactive: 0.145 | inactive: 0.027 | inactive: 0.032 |  | inactive: -0.198 | inactive: 0.034
8 | VWA8 (UniProt A3KMH1) | inactive: -0.113 | inactive: -0.001 | inactive: -0.099 | inactive: -0.018 | inactive: -0.158 | inactive: -0.016 | inactive: -0.057 | inactive: 0.067 | inactive: 0.036 | active: -0.255
9 | WASHC2C, A0A096LPC5 | inactive: -0.144 | inactive: -0.335 | inactive: 0.093 | inactive: -0.101 | inactive: 0.13 | inactive: -0.003 | inactive: -0.016 | inactive: -0.082 | inactive: 0.283 | inactive: 0.123
10 | WDR70 (UniProt Q9NW82) | inactive: -0.039 | inactive: 0.009 | inactive: -0.009 | inactive: 0.012 | inactive: -0.035 | inactive: 0.012 | inactive: 0.003 | inactive: -0.023 | inactive: -0.03 | inactive: 0.039
11 | WDR46 (UniProt O15213) | inactive: 0.251 | inactive: -0.026 | inactive: -0.055 | inactive: 0.117 | inactive: 0.364 | inactive: 0.096 | inactive: -0.376 | inactive: -0.187 | inactive: 0.084 | inactive: -0.093
12 | WDR44 (UniProt Q5JSH3) | inactive: -0.023 | inactive: -0.005 | inactive: 0.002 | inactive: -0.034 | inactive: 0.039 | inactive: -0.003 | inactive: 0.025 | inactive: 0.046 | inactive: 0.007 | inactive: 0.053
13 | VKORC1 (UniProt Q9BQB6) | inactive: -0.062 | inactive: 0.045 | inactive: -0.008 | inactive: 0.013 | inactive: -0.049 | inactive: -0.013 | inactive: 0.105 | inactive: 0.081 | inactive: 0 | inactive: 0.035
14 | WDR92 (UniProt Q96MX6) | inactive: 0.057 | inactive: 0.051 | inactive: -0.011 | inactive: 0.03 | inactive: -0.146 | inactive: 0.101 | inactive: 0 | inactive: -0.088 | inactive: -0.074 | inactive: 0.041
15 | WDR26, A0A499FIZ0 | inactive: -0.007 | inactive: -0.002 | inactive: -0.034 | inactive: -0.031 | inactive: 0.018 | inactive: -0.007 | inactive: -0.1 | inactive: 0.007 | inactive: 0.054 | inactive: -0.02
16 | VCX3B (UniProt Q9H321) | inactive: -0.026 | inactive: -0.052 | inactive: -0.015 | inactive: 0.039 | inactive: 0.035 | inactive: -0.112 | inactive: -0.071 |  | inactive: -0.07 | inactive: 0.064
17 | WDR82 (UniProt Q6UXN9) | inactive: 0.059 | inactive: -0.019 | inactive: 0 | inactive: 0.117 | inactive: 0.091 | inactive: 0.03 | inactive: -0.111 | inactive: -0.063 | inactive: 0.059 | inactive: -0.041
18 | VTA1 (UniProt Q9NP79) | inactive: -0.035 | inactive: 0.081 | inactive: -0.07 | inactive: -0.011 | inactive: -0.109 | inactive: -0.005 | inactive: 0.035 | inactive: 0 | inactive: -0.109 | inactive: 0.033
19 | WDR48 (UniProt Q8TAF3) | inactive: -0.033 | inactive: -0.049 | inactive: 0.01 | inactive: -0.003 | inactive: 0.041 | inactive: 0.005 | inactive: 0.017 | inactive: 0.02 | inactive: 0.031 | inactive: 0.039
20 | VPS37B (UniProt Q9H9H4) | inactive: -0.036 | inactive: 0.055 | inactive: -0.078 | inactive: -0.074 | inactive: -0.034 | inactive: 0.007 |  | inactive: -0.005 | inactive: -0.131 | inactive: 0.032
21 | WRB (UniProt O00258) | inactive: -0.072 | inactive: -0.011 | inactive: 0.015 | inactive: 0.005 | inactive: 0.031 | inactive: -0.036 | inactive: -0.011 | inactive: 0.089 | inactive: 0.024 | inactive: 0.052
22 | VPS51 (UniProt Q9UID3) | inactive: 0.009 | inactive: 0.039 | inactive: -0.089 | inactive: -0.037 | inactive: -0.126 | inactive: -0.042 | inactive: -0.075 | inactive: -0.008 | inactive: -0.095 | inactive: 0.083
23 | WDR34 (UniProt Q96EX3) | inactive: 0.005 | inactive: -0.043 | inactive: -0.065 | inactive: 0.099 | inactive: 0.025 | inactive: -0.045 | inactive: 0.026 | inactive: -0.027 | inactive: 0.071 | inactive: -0.005
24 | VPS37C (UniProt A5D8V6) | inactive: -0.076 | inactive: -0.024 | inactive: 0 | inactive: -0.003 | inactive: -0.071 | inactive: 0.014 | inactive: -0.029 |  | inactive: 0.015 | inactive: 0.053
25 | VGLL4 isoform 4 (UniProt Q14135) | inactive: 0.014 | inactive: -0.069 | inactive: 0.08 | inactive: -0.022 |  | inactive: 0.04 |  | inactive: 0.016 | inactive: -0.01 | inactive: -0.057
26 | VSIR (UniProt Q9H7M9) | inactive: 0.009 | inactive: -0.033 | inactive: 0.024 | inactive: -0.021 |  | inactive: -0.021 | inactive: 0.103 | inactive: 0.042 |  | inactive: 0.016
27 | VMA21 (UniProt Q3ZAQ7) | inactive: -0.089 | inactive: 0.019 | inactive: 0.071 | inactive: 0.002 |  | inactive: -0.033 | inactive: 0.088 |  | inactive: -0.071 | inactive: 0.038
28 | VIRMA (UniProt Q69YN4) | inactive: -0.066 | inactive: -0.195 | inactive: -0.03 | inactive: -0.042 |  | inactive: 0.041 | inactive: -0.193 | inactive: 0.05 |  | 
29 | VPS52 (UniProt Q8N1B4) | inactive: -0.005 | inactive: -0.031 | inactive: -0.085 | inactive: -0.086 | inactive: -0.071 | inactive: 0.091 | inactive: 0.001 | inactive: -0.016 | inactive: -0.089 | inactive: 0
30 | VRK1 (UniProt Q99986) | inactive: 0.035 | inactive: 0.078 | inactive: -0.074 | active: 0.542 | inactive: -0.224 | inactive: 0.164 | inactive: 0.057 | inactive: 0.028 | inactive: -0.041 | inactive: 0.008

Shown comma-delimited: entries from further up.
Row,Target,log2 fold change (bafetinib),log2 fold change [1],log2 fold change (nilotinib),log2 fold change [2],log2 fold change (dasatinib),log2 fold change [3],log2 fold change [4],log2 fold change [5],log2 fold change (tipifarnib),log2 fold change (mubritinib)
9,"WASHC2C, A0A096LPC5",inactive: -0.144,inactive: -0.335,inactive: 0.093,inactive: -0.101,inactive: 0.13,inactive: -0.003,inactive: -0.016,inactive: -0.082,inactive: 0.283,inactive: 0.123
13,VKORC1 (UniProt Q9BQB6),inactive: -0.062,inactive: 0.045,inactive: -0.008,inactive: 0.013,inactive: -0.049,inactive: -0.013,inactive: 0.105,inactive: 0.081,inactive: 0,inactive: 0.035
